Test results taken from publication PMC9245577.
No constants are given. Whether binding was seen depends on the method and setting. Binding can be weak; no strength is given.

By UniProt entry, the sequences of proteins in these tests, tags left out. Where a name states a change or a piece, a line headed by the entry shows the natural chain unless it says otherwise.
UniProt P20649: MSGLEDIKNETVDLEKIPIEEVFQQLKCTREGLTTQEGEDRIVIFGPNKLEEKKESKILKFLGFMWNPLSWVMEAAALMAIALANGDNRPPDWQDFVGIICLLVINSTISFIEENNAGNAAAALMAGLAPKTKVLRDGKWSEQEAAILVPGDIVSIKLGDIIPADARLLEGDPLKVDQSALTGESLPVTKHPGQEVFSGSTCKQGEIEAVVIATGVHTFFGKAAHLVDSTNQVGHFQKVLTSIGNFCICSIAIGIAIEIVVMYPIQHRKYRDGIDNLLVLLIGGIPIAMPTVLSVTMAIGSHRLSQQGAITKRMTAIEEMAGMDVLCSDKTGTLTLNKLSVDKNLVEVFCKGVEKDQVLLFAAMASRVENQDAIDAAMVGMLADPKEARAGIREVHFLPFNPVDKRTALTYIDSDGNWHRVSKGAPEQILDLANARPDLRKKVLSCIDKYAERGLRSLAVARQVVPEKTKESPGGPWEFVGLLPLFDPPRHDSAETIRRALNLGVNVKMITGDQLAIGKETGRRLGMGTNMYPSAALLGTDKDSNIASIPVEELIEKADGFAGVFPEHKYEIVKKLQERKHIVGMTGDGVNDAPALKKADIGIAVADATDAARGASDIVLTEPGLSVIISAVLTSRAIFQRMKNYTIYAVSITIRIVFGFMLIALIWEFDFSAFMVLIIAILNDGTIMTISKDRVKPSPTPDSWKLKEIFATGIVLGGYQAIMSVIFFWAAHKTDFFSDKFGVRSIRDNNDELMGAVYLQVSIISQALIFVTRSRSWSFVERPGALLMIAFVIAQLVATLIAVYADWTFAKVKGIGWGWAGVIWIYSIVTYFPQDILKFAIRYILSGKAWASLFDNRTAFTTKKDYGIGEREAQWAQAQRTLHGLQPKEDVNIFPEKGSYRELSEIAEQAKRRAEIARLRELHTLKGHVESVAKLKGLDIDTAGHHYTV
UniProt Q43128: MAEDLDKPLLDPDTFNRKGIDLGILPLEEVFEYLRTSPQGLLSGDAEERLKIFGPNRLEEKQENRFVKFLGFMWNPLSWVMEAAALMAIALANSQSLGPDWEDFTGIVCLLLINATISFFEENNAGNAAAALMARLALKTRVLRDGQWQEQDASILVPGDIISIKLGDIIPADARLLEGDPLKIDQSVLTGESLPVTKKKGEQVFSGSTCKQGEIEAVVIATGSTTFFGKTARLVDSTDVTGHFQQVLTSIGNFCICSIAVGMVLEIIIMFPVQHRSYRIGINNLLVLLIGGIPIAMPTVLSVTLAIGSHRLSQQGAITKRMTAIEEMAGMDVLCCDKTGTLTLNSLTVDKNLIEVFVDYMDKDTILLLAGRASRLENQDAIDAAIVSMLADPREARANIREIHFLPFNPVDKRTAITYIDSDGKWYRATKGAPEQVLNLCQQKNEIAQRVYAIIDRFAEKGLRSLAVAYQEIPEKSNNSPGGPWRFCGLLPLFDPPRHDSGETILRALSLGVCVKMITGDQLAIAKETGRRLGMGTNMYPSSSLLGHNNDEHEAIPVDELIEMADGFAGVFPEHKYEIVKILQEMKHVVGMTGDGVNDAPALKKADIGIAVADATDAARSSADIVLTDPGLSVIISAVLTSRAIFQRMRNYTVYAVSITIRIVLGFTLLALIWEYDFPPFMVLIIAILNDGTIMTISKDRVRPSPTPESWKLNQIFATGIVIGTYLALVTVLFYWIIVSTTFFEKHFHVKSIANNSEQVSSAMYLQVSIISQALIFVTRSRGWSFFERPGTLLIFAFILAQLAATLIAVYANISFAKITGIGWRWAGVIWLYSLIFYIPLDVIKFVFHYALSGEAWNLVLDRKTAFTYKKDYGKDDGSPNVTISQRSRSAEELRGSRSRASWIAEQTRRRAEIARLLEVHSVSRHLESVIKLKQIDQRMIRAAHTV
UniProt P20431: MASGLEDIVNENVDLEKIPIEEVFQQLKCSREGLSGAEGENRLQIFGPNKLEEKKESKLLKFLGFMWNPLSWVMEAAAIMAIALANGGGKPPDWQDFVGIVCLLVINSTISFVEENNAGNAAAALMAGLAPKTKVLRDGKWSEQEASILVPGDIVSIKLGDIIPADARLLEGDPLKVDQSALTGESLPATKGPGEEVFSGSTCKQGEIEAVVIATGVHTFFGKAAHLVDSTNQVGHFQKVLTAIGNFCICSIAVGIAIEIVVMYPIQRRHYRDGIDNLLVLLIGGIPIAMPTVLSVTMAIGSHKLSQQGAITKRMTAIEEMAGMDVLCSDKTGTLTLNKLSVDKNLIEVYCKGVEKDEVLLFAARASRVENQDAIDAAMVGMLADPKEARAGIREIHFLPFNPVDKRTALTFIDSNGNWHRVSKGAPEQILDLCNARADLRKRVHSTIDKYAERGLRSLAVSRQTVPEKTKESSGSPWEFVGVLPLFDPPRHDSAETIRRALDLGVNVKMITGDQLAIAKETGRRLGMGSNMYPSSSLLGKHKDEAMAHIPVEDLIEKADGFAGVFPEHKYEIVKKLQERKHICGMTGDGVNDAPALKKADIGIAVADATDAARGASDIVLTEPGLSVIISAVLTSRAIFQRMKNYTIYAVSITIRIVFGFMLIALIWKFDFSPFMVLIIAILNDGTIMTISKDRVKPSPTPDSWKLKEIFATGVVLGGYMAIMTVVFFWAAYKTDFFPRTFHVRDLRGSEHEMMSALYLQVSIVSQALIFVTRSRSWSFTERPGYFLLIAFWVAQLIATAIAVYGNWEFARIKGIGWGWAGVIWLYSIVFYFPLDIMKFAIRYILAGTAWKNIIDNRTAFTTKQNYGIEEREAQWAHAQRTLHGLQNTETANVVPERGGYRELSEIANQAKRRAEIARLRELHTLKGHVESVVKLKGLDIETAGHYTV
UniProt Q42556: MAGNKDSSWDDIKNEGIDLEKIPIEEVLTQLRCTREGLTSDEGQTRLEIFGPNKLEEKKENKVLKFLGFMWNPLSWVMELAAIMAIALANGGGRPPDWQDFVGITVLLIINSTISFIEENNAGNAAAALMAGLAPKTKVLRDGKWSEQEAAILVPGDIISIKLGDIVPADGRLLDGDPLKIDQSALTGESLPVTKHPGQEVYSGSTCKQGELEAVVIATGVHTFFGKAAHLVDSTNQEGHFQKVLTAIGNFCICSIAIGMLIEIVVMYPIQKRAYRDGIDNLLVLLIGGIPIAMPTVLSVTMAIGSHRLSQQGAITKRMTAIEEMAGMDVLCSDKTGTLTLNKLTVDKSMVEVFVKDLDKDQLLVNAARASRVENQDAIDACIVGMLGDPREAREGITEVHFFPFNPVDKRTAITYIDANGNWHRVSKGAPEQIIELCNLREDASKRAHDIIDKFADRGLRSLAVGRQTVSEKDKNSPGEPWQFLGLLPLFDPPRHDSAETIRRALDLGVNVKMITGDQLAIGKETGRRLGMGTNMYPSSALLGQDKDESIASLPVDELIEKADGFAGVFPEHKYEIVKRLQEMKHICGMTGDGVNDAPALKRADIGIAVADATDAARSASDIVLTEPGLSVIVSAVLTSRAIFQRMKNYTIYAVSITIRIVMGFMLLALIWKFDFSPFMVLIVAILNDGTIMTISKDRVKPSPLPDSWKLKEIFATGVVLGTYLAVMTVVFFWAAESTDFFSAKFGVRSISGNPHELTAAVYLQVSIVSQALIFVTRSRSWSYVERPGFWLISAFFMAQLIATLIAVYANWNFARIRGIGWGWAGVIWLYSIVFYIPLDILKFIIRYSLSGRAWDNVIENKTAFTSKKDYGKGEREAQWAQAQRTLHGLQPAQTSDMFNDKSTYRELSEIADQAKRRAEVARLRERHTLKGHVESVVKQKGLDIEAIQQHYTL
UniProt P19456: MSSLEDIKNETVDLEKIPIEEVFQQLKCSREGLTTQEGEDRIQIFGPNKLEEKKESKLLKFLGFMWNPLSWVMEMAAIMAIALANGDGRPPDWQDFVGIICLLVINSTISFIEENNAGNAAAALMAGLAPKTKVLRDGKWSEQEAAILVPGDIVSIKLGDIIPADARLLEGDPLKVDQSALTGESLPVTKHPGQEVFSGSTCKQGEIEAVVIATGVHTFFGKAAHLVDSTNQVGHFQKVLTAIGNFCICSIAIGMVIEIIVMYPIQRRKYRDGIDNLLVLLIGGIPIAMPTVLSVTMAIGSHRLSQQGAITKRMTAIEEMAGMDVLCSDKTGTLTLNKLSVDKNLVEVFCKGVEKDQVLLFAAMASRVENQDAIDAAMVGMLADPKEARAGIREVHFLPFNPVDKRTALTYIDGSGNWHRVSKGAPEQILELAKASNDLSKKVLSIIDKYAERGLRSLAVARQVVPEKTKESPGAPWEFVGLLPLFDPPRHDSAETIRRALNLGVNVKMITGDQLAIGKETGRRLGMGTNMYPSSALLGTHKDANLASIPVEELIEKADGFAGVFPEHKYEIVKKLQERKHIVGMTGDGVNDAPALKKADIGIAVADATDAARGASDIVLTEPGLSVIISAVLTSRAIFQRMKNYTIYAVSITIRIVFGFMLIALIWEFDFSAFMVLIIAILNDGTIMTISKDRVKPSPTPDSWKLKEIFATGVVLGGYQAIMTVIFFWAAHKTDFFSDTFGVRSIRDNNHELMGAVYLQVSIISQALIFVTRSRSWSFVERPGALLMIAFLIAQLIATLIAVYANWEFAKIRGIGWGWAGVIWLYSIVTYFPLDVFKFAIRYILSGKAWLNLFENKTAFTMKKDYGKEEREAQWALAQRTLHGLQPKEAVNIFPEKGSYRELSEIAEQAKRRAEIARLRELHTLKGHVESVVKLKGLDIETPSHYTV
UniProt Q9SUA6: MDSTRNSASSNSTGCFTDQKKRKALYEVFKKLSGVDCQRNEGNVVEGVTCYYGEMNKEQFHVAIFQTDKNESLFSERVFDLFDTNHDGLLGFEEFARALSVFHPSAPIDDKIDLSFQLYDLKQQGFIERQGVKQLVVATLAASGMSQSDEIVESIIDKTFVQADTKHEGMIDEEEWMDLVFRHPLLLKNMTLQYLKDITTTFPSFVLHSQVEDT

What was measured:
Experiment in all cases: two-hybrid; yeast strain AH109; C termini of AHAs in pGBKT7 (BD), full-length SCaBP3 in pGADT7; serial 10-fold dilutions spotted on SD-LW, SD-HLW and SD-HLW + 1 mM 3-AT, 28°C, 3-5 d
[1] = target: C terminus of the PM H+-ATPase AHA1 (Arabidopsis thaliana) (UniProt P20649)
[2] = target: C terminus of the PM H+-ATPase AHA10 (Arabidopsis thaliana) (UniProt Q43128)
[3] = target: C terminus of the PM H+-ATPase AHA3 (Arabidopsis thaliana) (UniProt P20431)
[4] = target: C terminus of the PM H+-ATPase AHA9 (Arabidopsis thaliana) (UniProt Q42556)
[5] = substrate: C terminus of the PM H+-ATPase AHA2 (Arabidopsis thaliana) (UniProt P19456)

## SOS3-LIKE CALCIUM BINDING PROTEIN3 (SCaBP3) (from UniProt Q9SUA6 1-214)
[1]
  binding: binds
[2]
  binding: binds
[3]
  binding: binds
[4]
  binding: binds

B1: PKS5 (protein, UniProt O22932 1-435)
chain: MPEIEIAAGSGDNNDALFGKYELGKLLGCGAFAKVFHARDRRTGQSVAVKILNKKKLLTNPALANNIKREISIMRRLSHPNIVKLHEVMATKSKIFFAMEFVKGGELFNKISKHGRLSEDLSRRYFQQLISAVGYCHARGVYHRDLKPENLLIDENGNLKVSDFGLSALTDQIRPDGLLHTLCGTPAYVAPEILSKKGYEGAKVDVWSCGIVLFVLVAGYLPFNDPNVMNMYKKIYKGEYRFPRWMSPDLKRFVSRLLDINPETRITIDEILKDPWFVRGGFKQIKFHDDEIEDQKVESSLEAVKSLNAFDLISYSSGLDLSGLFAGCSNSSGESERFLSEKSPEMLAEEVEGFAREENLRMKKKKEEEYGFEMEGQNGKFGIGICISRLNDLLVVVEARRRGGDGDCYKEMWNGKLRVQLIRVCDQTSSTNAAI
[5]
  binding: binds
